Experimental data as given in PubChem BioAssay AID901 (National Center for Advancing Translational Sciences (NCATS), 2007).
This is one part of the list. The main result of the screen is listed elsewhere. These columns were measured beside it and carry no call. The list favours compounds with an active or inconclusive main result. The note in brackets gives the kind of curve behind each potency; many fits are weak.

Experiment: qHTS Assay for Identifying the Cell-Membrane Permeable IMPase Inhibitors
Conditions: CHO-M1 cells, IP1 accumulation, HTRF TR-FRET ratio; measured here: donor channel 620 nm AC50
From the text: NCGC IMPase Assay Overview
Lithium has been widely used for the treatment of bipolar disorder. But lithium has a narrow therapeutic index and it can cause side effects such as thirst, weight gain, tremor, polyuria and memory problems. Although the mechanism for lithium action in treatment of bipolar disorder is still not fully understood, inhibition of inositol monophosphatase (IMPase) and the subsequent depletion of the inositol pool in living cells have been implicated as the primary therapeutic benefit of lithium therapy. Therefore, a selective IMPase inhibitor with reduced side effects might be a good drug candidate to replace lithium for the treatment of bipolar disorder. Several IMPase inhibitors have been discovered previously. However, they are not suitable for therapeutic use because of their poor cell membrane penetrability or oral bioavailability; the development of new cell-permeable IMPase inhibitors is needed.
IMPase catalyzes the hydrolysis of inositol-1-phosphate (IP1) to release free inositol. Binding of an agonist to a Gq coupled GPCR results in the activation of PLC, which hydrolyzes the PIP2 to form inositol-1,4,5-trisphosphate (IP3) and diacyl glycerol (DAG). While DAG activates protein kinase C (PKC), IP3 triggers the elevation of intracellular free Ca2+. The IP3 is very rapidly inactivated by hydrolysis to IP2, IP1 and then inositol by a series of enzymes including IMPase. Free inositols are used for synthesis of PI and thus start another inositol cycle.
To identify new cell-permeable IMPase inhibitors, we developed a cell-based IMPase assay in which the cytosolic IP1 is measured by a time-resolved fluorescence resonance energy transfer (TR-FRET) assay. In this assay, an IP1 specific antibody is used to detect the labeled IP1 tracer. When the cell lysate contains the elevated IP1 due to the inhibition of IMPase, the TR-FRET between the labeled antibody and IP1 tracer is disrupted resulting in a reduction in the total signal. Since the TR-FRET is used, this cell-based assay is a homogenous assay without cell wash and medium change that is suitable for assay miniaturization and HTS.
NCGC IMPase Assay Protocol Summary
A Chinese hamster ovary (CHO) cell line stably expressing the M1 receptor (CHO-M1) was obtained from ATCC and maintained in F-12 Kaighn's media (Invitrogen, Carlsbad, CA, 21127) supplemented with 10 % FBS, 100 units/ml penicillin, 100 ug/ml streptomycin and 250 ug/ml geneticin at 37C, 5% CO2 in a humidified atmosphere. Before the assay, aliquots of cells were frozen and stored at -135C. The assay was performed in 1536-well format. Data are reported for both the ratio of the two emission wavelengths, and also for the component 'donor' channel, Em2=620. […] AC50 values were determined from concentration-response data modeled with the standard Hill equation.
IMPase 1536-well assay protocol:
(1) Plate 4 ul/well (2000 cells) of cell suspension from frozen CHO-M1 Cells in white, tissue culture treated 1536-well plates that are cultured at 37C, 5 % CO2 for 16 to 30 hours.
(2) Add 23 nl/well of compound in DMSO solution. The final titration for each compound was between 0.6 nM and 46 uM.
(3) Add 1 ul of carbachol (50 uM in stimulation buffer containing10mM HEPES, 1mM CaCl2, 0.5 mM MgCl2, 4.2 mM KCl, 146 mM NaCl, 5.5 mM glucose, 50mM LiCl, pH 7.4.
(4) Incubation at 37C, 5 % CO2 for 30 min.
(5) Add 1 ul/well of d2-conjugated IP1 (d2-IP1) and 1 ul/well of Eu+ cryptate conjugated anti-IP1 antibody (Eu+-Ab) prepared in the cell lysis buffer, both from the IP-One kit (Cisbio, MA).
(6) Incubate at room temperature for 10 minutes.
(7) Detect the assay plate (Ex = 320, Em1 =665 and Em2 620) in a ViewLux plate reader.
inositol monophosphatase, IMPase, IMPase inhibitor, lithium, bipolar disorder, IP-One, HTRF, qHTS, NIH roadmap, NCGC
Note: In the gene ID and protein GI references for this assay, rat IMPase is referenced instead of hampster as hamster accession numbers were not available.

Row | SMILES | AC50
1 | COc1ccc(CNS(=O)(=O)c2cc(OCC(N)=O)c(C)cc2Cl)cc1 | 20000 nM [falling, single point]
2 | Cc1ccc(/C=C(\C#N)c2nc(-c3ccc(-c4ccccc4)cc3)cs2)cc1 | 12.6 nM [falling, full curve]
3 | Cc1cccc(NC(=O)Cn2c(=O)n(C)c3ccccc32)c1 | 5010 nM [falling, single point]
4 | O=C1C2CCCN2C(c2ccccc2F)N1c1ccc(F)cc1 (configuration not stated) | 3160 nM [falling, single point]
5 | CN(C)CC(O)COc1cccc(OCC(O)CN(C)C)c1 (configuration not stated) | 631 nM [rising, single point]
6 | Cc1nc(N2CCN(c3ccccc3)CC2)nc2c1C(=O)CC(c1ccccc1)C2 (configuration not stated) | 25.1 nM [rising, full curve, poor fit]
7 | CCCc1nc(Cl)c(C#N)c2c1CCCC2 | 35500 nM [rising, single point]
8 | O=C(Cn1nc(-c2ccc(Cl)cc2)c2ccccc2c1=O)NCC1CCCO1 (configuration not stated) | 3980 nM [rising, full curve, poor fit]
9 | O=C1NCC(COCc2ccco2)O1 (configuration not stated) | 5010 nM [rising, single point]
10 | Cc1cc2c(c(SCC(=O)N(C)c3ccccc3)n1)C(=O)OC2 | 12600 nM [falling, partial curve, poor fit]
11 | CCOc1ccc(Cn2nnc(C(=O)NCc3ccc(OC)cc3)c2N)cc1 | 35500 nM [rising, partial curve]
12 | Cc1ccc(S(=O)(=O)N2CCN(C(=O)N(c3ccccc3)c3ccccc3)CC2)cc1 | 3160 nM [falling, single point]
13 | N#Cc1nc(Cc2ccccc2)oc1N1CCN(c2cccc(Cl)c2)CC1 | 15800 nM [rising, single point]
14 | CCOc1ccc(NC(=NCc2ccc3c(c2)OCO3)SC2CC(=O)N(c3ccc(OCC)cc3)C2=O)cc1 (configuration not stated) | 10 nM [rising, full curve, poor fit]
15 | O=c1c2oc3ccccc3c2[nH]c(=S)n1-c1ccccc1 | 12600 nM [rising, partial curve]
16 | Cc1ccc(C)c(Nc2nnc(-c3ccc(C)c(S(=O)(=O)NCC4CCCO4)c3)c3ccccc23)c1 (configuration not stated) | 316 nM [falling, full curve, poor fit]
17 | COc1ccc(-c2[nH]ncc2-c2ccc3c(c2)OCCO3)c(O)c1 | 7.94 nM [falling, full curve, poor fit]
18 | Cc1ccc(C)c(C(=O)COc2ccccc2[N+](=O)[O-])c1 | 3160 nM [rising, single point]
19 | Cc1cccn2c(=O)c3cc(C(=O)NCC4CCCO4)c(=N)n(Cc4cccnc4)c3nc12 (configuration not stated) | 631 nM [falling, single point]
20 | Cc1cn(S(=O)(=O)c2ccc(Br)c3ccccc23)cn1 | 12600 nM [rising, partial curve]
21 | Cc1ccnc(N2CCC(C(=O)Nc3ccc4c(c3)OCO4)CC2)n1 | 3980 nM [falling, full curve]

Row | SMILES | AC50
22 | COc1cccc(C2C(C(=O)c3cc4cccc(OC)c4o3)=C(O)C(=O)N2c2cc(C)on2)c1OC (configuration not stated) | 12600 nM [rising, partial curve]
23 | Cc1ccc(OCC(=O)n2nc(C)cc2C)c(Br)c1 | 1260 nM [falling, single point]
24 | CCOC(=O)N1CCC(NC(=O)c2cnn3cccnc23)CC1 | 158 nM [falling, full curve]
25 | O=C(CN1CCc2ccccc2C1)Nc1ccccc1N1CCCCCC1 | 31600 nM [falling, single point]
26 | CC1(C)Cc2c(c(-c3ccco3)nc3n[nH]c(N)c23)CO1 | 100 nM [falling, full curve]
27 | Cc1cccc2cc(CN(CCCO)C(=O)Nc3cccc(Cl)c3)c(=O)[nH]c12 | 25.1 nM [rising, full curve, poor fit]
28 | O=C(NC1CCS(=O)(=O)C1)c1cn(-c2ccccc2)nc1-c1ccccc1 (configuration not stated) | 2510 nM [rising, partial curve]
29 | C=C(C)Cn1c(=S)[nH]c2ccccc2c1=O | 14.1 nM [falling, full curve, poor fit]
30 | Clc1cccc(Cl)c1NC1=NCCN1 | 31600 nM [falling, single point]
31 | NC(=O)C1CCN(c2nc(-c3ccccc3)nc3c2oc2ccccc23)CC1 | 31600 nM [rising, single point]
32 | CN(NC(=O)COc1ccccc1)c1ccccc1 | 17.8 nM [falling, full curve, poor fit]
33 | CCOC(=O)c1sc(NC(=O)c2cc3n(n2)C(C(F)(F)F)CC(c2ccccc2)N3)c(C(=O)OCC)c1C (configuration not stated) | 398 nM [falling, full curve]
34 | Cn1nnnc1SCC(=O)NCc1cccs1 | 15800 nM [falling, single point]
35 | CCn1c(O)c(/C=N/n2cnnc2)sc1=S | 282 nM [falling, partial curve, poor fit]
36 | CCOC(=O)c1c(NC(=O)C2CCCO2)sc2c1CCC2 (configuration not stated) | 3.98 nM [rising, full curve, poor fit]
37 | O=C(C1CCN(S(=O)(=O)c2ccc3ccccc3c2)CC1)N1CCN(c2ncccn2)CC1 | 251 nM [falling, partial curve]
38 | O=C(Nc1cc(C(F)(F)F)ccc1N1CCOCC1)c1ccc[n+]([O-])c1 | 3160 nM [falling, full curve]
39 | COC(=O)C1=CN(C)C=C(C(=O)OC)C1c1ccccc1Cl | 126 nM [falling, full curve, poor fit]
40 | Cn1ncc(Br)c1C(=O)N/N=C/c1ccc(OS(=O)(=O)c2ccccc2)cc1 | 158 nM [falling, partial curve]
41 | Cc1ccc(C)c(N2CCN(C(=O)CCS(=O)(=O)c3cc(Br)cc4c3N(C(=O)C3CC3)CC4)CC2)c1 | 35500 nM [falling, single point]
42 | CCCCNC(=O)CCn1nc(-c2ccc(Cl)cc2)c2ccccc2c1=O | 50.1 nM [falling, full curve, poor fit]

Arranged by formula weight (high to low): some entries from above
Row | SMILES | AC50
16 | Cc1ccc(C)c(Nc2nnc(-c3ccc(C)c(S(=O)(=O)NCC4CCCO4)c3)c3ccccc23)c1 (configuration not stated) | 316 nM [falling, full curve, poor fit]
8 | O=C(Cn1nc(-c2ccc(Cl)cc2)c2ccccc2c1=O)NCC1CCCO1 (configuration not stated) | 3980 nM [rising, full curve, poor fit]
17 | COc1ccc(-c2[nH]ncc2-c2ccc3c(c2)OCCO3)c(O)c1 | 7.94 nM [falling, full curve, poor fit]
